Results from doi:10.1101/2024.09.26.615107.
No constants are given. Whether binding was seen depends on the method and setting. Binding seen in cells or lysates may run through a third protein. Some binding calls cover weakened binding; strength is not graded here.

Target: T1, FRMD8 (FERM domain-containing protein 8) (UniProt Q3UFK8)
T1 sequence: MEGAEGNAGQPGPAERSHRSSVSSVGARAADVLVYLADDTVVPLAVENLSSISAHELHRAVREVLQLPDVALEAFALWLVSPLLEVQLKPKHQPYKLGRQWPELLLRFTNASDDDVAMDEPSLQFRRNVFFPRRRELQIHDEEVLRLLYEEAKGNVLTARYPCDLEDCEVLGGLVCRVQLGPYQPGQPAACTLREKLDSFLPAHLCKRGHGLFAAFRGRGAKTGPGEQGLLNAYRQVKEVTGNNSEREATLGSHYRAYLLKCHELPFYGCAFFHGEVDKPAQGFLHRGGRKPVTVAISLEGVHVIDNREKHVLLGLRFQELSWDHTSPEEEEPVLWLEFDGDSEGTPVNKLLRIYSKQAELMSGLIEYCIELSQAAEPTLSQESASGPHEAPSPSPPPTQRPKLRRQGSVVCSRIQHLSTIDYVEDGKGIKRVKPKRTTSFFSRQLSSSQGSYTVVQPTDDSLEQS
Test: co-IP

binding: binds
B1: iRhom2 (protein, UniProt Q80WQ6 1-827)
chain: MASADKNGSNLPSVSGSRLQSRKPPNLSITIPPPESQAPGEQDSMLPERRKNPAYLKSVSLQEPRGRWQEGAEKRPGFRRQASLSQSIRKSTAQWFGVSGDWEGKRQNWHRRSLHHCSVHYGRLKASCQRELELPSQEVPSFQGTESPKPCKMPKIVDPLARGRAFRHPDEVDRPHAAHPPLTPGVLSLTSFTSVRSGYSHLPRRKRISVAHMSFQAAAALLKGRSVLDATGQRCRHVKRSFAYPSFLEEDAVDGADTFDSSFFSKEEMSSMPDDVFESPPLSASYFRGVPHSASPVSPDGVHIPLKEYSGGRALGPGTQRGKRIASKVKHFAFDRKKRHYGLGVVGNWLNRSYRRSISSTVQRQLESFDSHRPYFTYWLTFVHIIITLLVICTYGIAPVGFAQHVTTQLVLKNRGVYESVKYIQQENFWIGPSSIDLIHLGAKFSPCIRKDQQIEQLVRRERDIERTSGCCVQNDRSGCIQTLKKDCSETLATFVKWQNDTGPSDKSDLSQKQPSAVVCHQDPRTCEEPASSGAHIWPDDITKWPICTEQAQSNHTGLLHIDCKIKGRPCCIGTKGSCEITTREYCEFMHGYFHEDATLCSQVHCLDKVCGLLPFLNPEVPDQFYRIWLSLFLHAGIVHCLVSVVFQMTILRDLEKLAGWHRISIIFILSGITGNLASAIFLPYRAEVGPAGSQFGLLACLFVELFQSWQLLERPWKAFFNLSAIVLFLFICGLLPWIDNIAHIFGFLSGMLLAFAFLPYITFGTSDKYRKRALILVSLLVFAGLFASLVLWLYIYPINWPWIEYLTCFPFTSRFCEKYELDQVLH
